The reference is the same well before dosing, and untreated signal decays as well.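 Labels refer to human fibroblasts, largely primary: uterine (C12385, HUF), lung (H6013), bone (Hs27A), adrenal (HADF), skin (WS1), plus mammary HMF and breast cancer-associated Hs343T. Cancer lines are basal-like or mesenchymal-like triple-negative breast cancer. The paper counts as hits responses shifting over 3x the replicate standard deviation. The tissue of the other fibroblasts is not given here.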
Test system: MDAMB468
Assay: relative JC-1 red fluorescence (viability) vs pre-drug, coculture with fibroblast (fraction); higher = more viable cancer cells
Description: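 JC-1 labelled TNBC cells cocultured 1:1 (1,500 cells each) with CellTrace Violet stained primary or stromal fibroblasts in 384-well plates in FluoroBrite medium, treated with one of 42 anticancer drugs at 0.1, 1, 10 or 100 uM. JC-1 red fluorescence (mitochondrial integrity in cancer cells only) was read by plate reader every 8 h for 72 h. Values are normalised to each well's pre-drug value. The stock of one drug was tenfold lower, so its dose labels may be too high.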

CCCCCOC(=O)Nc1nc(=O)n([C@@H]2O[C@H](C)[C@@H](O)[C@H]2O)cc1F [Capecitabine]
relative JC-1 red fluorescence
Settings	8 h	16 h	24 h	32 h	40 h	48 h	56 h	64 h	72 h
0.1 µM, coculture fibroblast: C12385	0.854	0.7901	0.731	0.663	0.601	0.577	0.538	0.51	0.488
0.1 µM, coculture fibroblast: H6013	0.867	0.876	0.83	0.82	0.78	0.784	0.759	0.745	0.692
0.1 µM, coculture fibroblast: H6019	0.841	0.813	0.787	0.74	0.698	0.671	0.627	0.588	0.559
0.1 µM, coculture fibroblast: H6076	0.957	0.924	0.951	0.902	0.8219	0.791	0.747	0.719	0.735
0.1 µM, coculture fibroblast: H6231	0.83682	0.824	0.8799	0.849	0.7912	0.75522	0.6964	0.6562	0.63281
0.1 µM, coculture fibroblast: HADF	0.875	0.8371	0.7809	0.76	0.71172	0.706	0.6633	0.644	0.606
0.1 µM, coculture fibroblast: HCFa	0.856	0.822	0.753	0.7214	0.6542	0.643	0.597	0.549	0.512
0.1 µM, coculture fibroblast: HCPF	0.874	0.909	0.896	0.864	0.802	0.767	0.706	0.694	0.673
0.1 µM, coculture fibroblast: HHSteC	0.858	0.808	0.758	0.709	0.66	0.654	0.596	0.565	0.519
0.1 µM, coculture fibroblast: HMF	0.827	0.9872	0.911	0.859	0.815	0.783	0.729	0.731	0.723
0.1 µM, coculture fibroblast: HPFa	0.93	0.871	0.833	0.783	0.748	0.739	0.67	0.631	0.553
0.1 µM, coculture fibroblast: HUF	0.899	0.7942	0.72693	0.6626	0.611	0.581	0.539	0.514	0.487
0.1 µM, coculture fibroblast: Hs5	0.768	0.812	0.9634	0.94	0.855	0.827	0.773	0.721	0.729
0.1 µM, coculture fibroblast: Hs27A	0.8593	0.813	0.748	0.731	0.659	0.652	0.606	0.576	0.542
0.1 µM, coculture fibroblast: Hs343T	0.877	0.9529	0.8948	0.8507	0.7862	0.7497	0.6902	0.663	0.635
0.1 µM, coculture fibroblast: WS1	0.838	0.766	0.712	0.653	0.598	0.564	0.535	0.507	0.498
1 µM, coculture fibroblast: C12385	0.894	0.82	0.772	0.727	0.691	0.69	0.649	0.629	0.624
1 µM, coculture fibroblast: H6013	0.909	0.852	0.812	0.803	0.782	0.797	0.775	0.771	0.715
1 µM, coculture fibroblast: H6019	0.831	0.796	0.759	0.699	0.6514	0.6373	0.59391	0.5683	0.5441
1 µM, coculture fibroblast: H6076	0.959	0.937	0.9055	0.911	0.853	0.841	0.8	0.789	0.836
1 µM, coculture fibroblast: H6231	0.8482	0.885	0.852	0.829	0.781	0.74	0.6867	0.6578	0.6448
1 µM, coculture fibroblast: HADF	0.942	0.871	0.83	0.825	0.8	0.808	0.77	0.773	0.726
1 µM, coculture fibroblast: HCFa	0.9095	0.843	0.794	0.762	0.7	0.694	0.639	0.597	0.537
1 µM, coculture fibroblast: HCPF	0.8858	0.937	0.823	0.807	0.745	0.715	0.666	0.648	0.636
1 µM, coculture fibroblast: HHSteC	0.9299	0.858	0.812	0.783	0.739	0.735	0.677	0.651	0.594
1 µM, coculture fibroblast: HMF	0.873	0.94	0.864	0.848	0.781	0.767	0.727	0.707	0.697
1 µM, coculture fibroblast: HPFa	0.9376	0.8557	0.825	0.765	0.735	0.723	0.66183	0.6372	0.5625
1 µM, coculture fibroblast: HUF	0.934	0.861	0.819	0.783	0.744	0.736	0.7	0.696	0.675
1 µM, coculture fibroblast: Hs5	0.781	0.9132	0.885	0.859	0.8	0.781	0.761	0.735	0.754
1 µM, coculture fibroblast: Hs27A	0.899	0.862	0.814	0.821	0.768	0.762	0.725	0.703	0.64
1 µM, coculture fibroblast: Hs343T	0.914	0.983	0.914	0.876	0.809	0.786	0.73	0.703	0.682
1 µM, coculture fibroblast: WS1	0.915	0.79	0.744	0.691	0.652	0.63	0.615	0.591	0.588
10 µM, coculture fibroblast: C12385	0.9006	0.801	0.764	0.705	0.646	0.627	0.582	0.541	0.517
10 µM, coculture fibroblast: H6013	0.887	0.8604	0.8174	0.8043	0.7797	0.794	0.7727	0.7596	0.7066
10 µM, coculture fibroblast: H6019	0.8393	0.811	0.784	0.74	0.693	0.674	0.637	0.593	0.568
10 µM, coculture fibroblast: H6076	0.9342	0.7602	0.924	0.894	0.822	0.802	0.758	0.739	0.751
10 µM, coculture fibroblast: H6231	0.836	0.819	0.916	0.863	0.822	0.783	0.717	0.677	0.659
10 µM, coculture fibroblast: HADF	0.9069	0.841	0.778	0.768	0.705	0.691	0.644	0.625	0.581
10 µM, coculture fibroblast: HCFa	0.875	0.828	0.777	0.747	0.686	0.687	0.642	0.605	0.571
10 µM, coculture fibroblast: HCPF	0.879	0.9919	0.89599	0.838	0.775	0.739	0.672	0.65534	0.6267
10 µM, coculture fibroblast: HHSteC	0.908	0.859	0.815	0.778	0.737	0.733	0.672	0.655	0.608
10 µM, coculture fibroblast: HMF	0.832	0.882	0.937	0.903	0.853	0.827	0.77	0.745	0.721
10 µM, coculture fibroblast: HPFa	0.9184	0.885	0.848	0.799	0.754	0.751	0.681	0.65	0.582
10 µM, coculture fibroblast: HUF	0.919	0.818	0.79	0.741	0.709	0.6913	0.654	0.65	0.64
10 µM, coculture fibroblast: Hs5	0.859	0.892	0.931	0.897	0.8267	0.795	0.753	0.7088	0.724
10 µM, coculture fibroblast: Hs27A	0.873	0.81322	0.761	0.7444	0.689	0.681	0.6401	0.6093	0.56
10 µM, coculture fibroblast: Hs343T	0.859	0.8331	0.929	0.8657	0.786	0.748	0.684	0.66	0.615
10 µM, coculture fibroblast: WS1	0.836	0.763	0.707	0.638	0.585	0.544	0.513	0.476	0.457
100 µM, coculture fibroblast: C12385	0.91459	0.824	0.805	0.754	0.709	0.693	0.648	0.621	0.608
100 µM, coculture fibroblast: H6013	0.907	0.8802	0.8519	0.8574	0.857	0.8687	0.8526	0.8483	0.8016
100 µM, coculture fibroblast: H6019	0.816	0.788	0.751	0.699	0.668	0.654	0.617	0.589	0.566
100 µM, coculture fibroblast: H6076	0.94	0.963	0.91	0.899	0.833	0.818	0.786	0.774	0.814
100 µM, coculture fibroblast: H6231	0.872	0.913	0.854	0.8729	0.8076	0.786	0.735	0.709	0.71
100 µM, coculture fibroblast: HADF	0.93387	0.868	0.82	0.82	0.772	0.755	0.709	0.691	0.65
100 µM, coculture fibroblast: HCFa	0.883	0.837	0.785	0.771	0.714	0.711	0.672	0.642	0.6026
100 µM, coculture fibroblast: HCPF	0.864	0.958	0.864	0.851	0.7982	0.762	0.724	0.708	0.682
100 µM, coculture fibroblast: HHSteC	0.927	0.8679	0.848	0.824	0.809	0.816	0.763	0.758	0.708
100 µM, coculture fibroblast: HMF	0.839	0.937	0.859	0.828	0.78	0.763	0.708	0.683	0.648
100 µM, coculture fibroblast: HPFa	0.982	0.917	0.901	0.853	0.84488	0.846	0.786	0.766	0.687
100 µM, coculture fibroblast: HUF	0.967	0.867	0.8392	0.781	0.744	0.7189	0.67828	0.663	0.647
100 µM, coculture fibroblast: Hs5	0.872	0.947	0.913	0.895	0.833	0.8	0.767	0.741	0.766
100 µM, coculture fibroblast: Hs27A	0.8854	0.839	0.776	0.77	0.702	0.688	0.645	0.614	0.572
100 µM, coculture fibroblast: Hs343T	0.914	0.949	0.877	0.849	0.785	0.771	0.727	0.705	0.69
100 µM, coculture fibroblast: WS1	0.876	0.803	0.75	0.678	0.632	0.591	0.554	0.516	0.495

Source: the supplement of paper PMC6078165
